Here are results for 9 compounds from the supplement of paper PMC12889115.

The list shows a part of the results. Values are raw readings; no control value is given beside them.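 In the initial screen, polymyxin B was used at a concentration that permeabilizes Salmonella's outer membrane but not its inner membrane. Maximum growth was set by DMSO wells with or without polymyxin B. Since plates varied, data were ranked per plate, and compounds giving the lowest OD600 advanced as hits.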

The test system of this assay is Salmonella enterica serovar Typhimurium SL1344. As to the kind of experiment: bacterial growth OD600 after 18 h with compound and polymyxin B; higher = more bacterial growth (less inhibition). Conditions: 50 µM, Mueller-Hinton broth.

Regarding `CCN(CC)CC(O)COc1cc(CNC2(c3ccccc3)CC2)ccc1OC` (centres undefined), the “bacterial growth OD600” value (polymyxin B 0.75 µg/mL) stood at 0.893.
Turning to `COc1ccccc1Oc1ncccc1CNC(=O)Cc1ccccn1`, the “bacterial growth OD600” value (polymyxin B 1 µg/mL) stood at 0.91.
As to `O=C(NCC[C@@H]1C[C@@H]2C=C[C@H]1C2)c1coc(COc2ccc3c(c2)OCO3)n1`, the “bacterial growth OD600” value (polymyxin B 0.75 µg/mL) stood at 0.769.
With `COc1ccc(C(=O)NC2CC2)cc1OC1CCN(C/C=C/c2ccccc2)CC1`, the “bacterial growth OD600” value (polymyxin B 1 µg/mL) was found to be 0.871.
`COc1cc(CN2CCN(Cc3ccc(NC(C)=O)cc3)CC2CCO)cc(OC)c1` (centres undefined): the “bacterial growth OD600” value (polymyxin B 1 µg/mL) turned out to be 0.808.
Same read-out and setting: as for `O=C1N(CC2CCC2)CCCC1(O)CN1CCC2(CC1)OCCO2` (centres undefined), the figure is 0.907.
In the case of `COc1ccccc1CNc1nc(CN(CCO)C2CS(=O)(=O)CC2O)nc2c(C)cccc12` (centres undefined), the “bacterial growth OD600” value (polymyxin B 0.75 µg/mL) was 1.06.
For the compound `Cc1cccc(CNC(C)c2cnn(-c3cccc(F)c3)c2C)c1` (centres undefined), the “bacterial growth OD600” value (polymyxin B 1 µg/mL) stood at 1.1.
`O=C(c1ccc(N2CCC(NCC3C4CC5CC(C4)CC3C5)CC2)cc1)N1CCOCC1` (centres undefined): the “bacterial growth OD600” value (polymyxin B 0.75 µg/mL) was 0.777.
